At least one compound was matched to its structure with a doubt left.
System: choroidal endothelial cells
Assay: Transendothelial electrical resistance (TER) of choroidal endothelial cells
Format: cell-based
Conditions: Example 3, FIG. 3, compared to cells treated with DMSO

CC1(C)O[C@@H]2C[C@H]3[C@@H]4CCC5=CC(=O)C=C[C@]5(C)[C@@]4(F)[C@@H](O)C[C@]3(C)[C@]2(C(=O)CO)O1 [TA, 9α-fluoro-1 1 13, 16a, 17, 21 tetra hydroxy-pregna-1,4-diene-3,20-dione cyclic 16,17-acetal with acetone]
transendothelial electrical resistance (TER): increased resistance

From US20050245497A1, “Treatment of ophthalmic conditions” (priority 2004, published 2005)
